Values from PubChem BioAssay AID1259405 (NCATS, 2018)
Test: 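Silenced genes that increase secreted GFP made by CHO cells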 (primary screen). Cell system: Chinese hamster CHO-K1 ovary cells with stable secreted eGFP expression. Reagent: single siRNA against mouse genes, 0.8 pmol siRNA per well (2 µl of 400 nM stock). Duration: 3 days. Measured: 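Percent of the per-plate non-targeting control median for intracellular GFP per well by laser scanning cytometry and for cell viability by ATP luminescence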. Reading the numbers: GFP, % of control: higher = more GFP per well, higher productivity; viability (ATP), % of control: higher = more viable cells (more ATP). Call rule: 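a knock-down is called active if GFP reaches 120% or more of non-targeting control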.
Shown is a random part of about 50,000 deposited reagents. In the full data, about 4,000 (8%) were called active. 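Mouse siRNA library applied to hamster cells; one well for each siRNA.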 Entries without a mark were called inactive. The numbers tell different reagents against one gene apart.

| target gene | siRNA no. | GFP, % of control | viability (ATP), % of control |
| --- | --- | --- | --- |
| Mfsd6 | 1 | 117 | 82.1 |
| Mfsd6 | 2 | 70.1 | 52.2 |
| Mfsd6 | 3 | 71.4 | 81.4 |
| Plpp6 | 1 | 64.5 | 77.5 |
| Plpp6 | 2 | 100 | 66.4 |
| Plpp6 | 3 | 64.3 | 100 |
| Carm1 | 1 | 156 (active) | 98 |
| Carm1 | 2 | 113 | 147 |
| Carm1 | 3 | 133 (active) | 115 |
| Tcirg1 | 1 | 96.4 | 101 |
| Tcirg1 | 2 | 59.4 | 74 |
| Tcirg1 | 3 | 72.3 | 73 |
| Ntaq1 | 1 | 151 (active) | 103 |
| Ntaq1 | 2 | 39.2 | 58.2 |
| Ntaq1 | 3 | 73.3 | 66.4 |
| Ntaq1 | 4 | 83.6 | 98.9 |
| Ntaq1 | 5 | 66.5 | 95.3 |
| Ntaq1 | 6 | 84.7 | 86.1 |
| Adcy3 | 1 | 71.5 | 92.4 |
| Adcy3 | 2 | 66.9 | 95 |
| Adcy3 | 3 | 77 | 83.6 |
| Spag5 | 1 | 98.3 | 88.5 |
| Spag5 | 2 | 91.2 | 81.2 |
| Spag5 | 3 | 47.7 | 65.4 |
| Ubxn6 | 1 | 92.9 | 62.3 |
| Ubxn6 | 2 | 65.1 | 79.3 |
| Ubxn6 | 3 | 99.2 | 112 |
| Or7a41 | 1 | 115 | 81.6 |
| Or7a41 | 2 | 95 | 71.6 |
| Or7a41 | 3 | 48.4 | 88.5 |
| Fabp4 | 1 | 83.8 | 61.9 |
| Fabp4 | 2 | 80.9 | 69.9 |
| Fabp4 | 3 | 67.6 | 71.5 |
| Psg18 | 1 | 29.2 | 31.7 |
| Psg18 | 2 | 75.9 | 56.1 |
| Psg18 | 3 | 88 | 89.3 |

Part of the list above, reformatted.
target gene,siRNA no.,"GFP, % of control","viability (ATP), % of control"
Spag5,2,91.2,81.2
Spag5,3,47.7,65.4
Ubxn6,1,92.9,62.3
Ubxn6,2,65.1,79.3
Ubxn6,3,99.2,112
Or7a41,1,115,81.6
